# Several values for one entry are separate records, joined by “and”; a condition that tells them apart may be missing. Equal entries are not always repeated. The list shows a part of the results. Single wells; the ratio to wells without odorant was worked out here, and repeats agree poorly.
# Tested on: OR11H6 clone 1275
# Assay: odorant receptor activation (CRE luciferase / Renilla) (fold of no-odor wells); higher = more activation
# Details: 100 µM
row,SMILES,odorant receptor activation
1,CCCCCC(=O)O [caproic acid],0.744
2,C=C(C)C1CC=CCC1 (stereo not given) [r-limonene],0.796 and 0.867
3,"CC1CCC(C(C)C)C(O)C1 (single isomer, unassigned; (+)) [(+)-menthol]",0.792
4,O=C1CCCCC1 [Cyclohexanone],0.788
5,CC(=O)c1ccccc1 [acetophenone],1.79
6,COC(=O)c1ccccc1 [methyl benzoate],0.891
7,O=CCc1ccccc1 [phenyl acetaldehyde],1.13
8,C=CC(C)(O)CCC=C(C)C (stereo not given) [linalool],0.981
9,CCCCO [1-butanol],0.878
10,CC/C=C\CCO [cis-3-hexen-1-ol],0.914
11,CC1=CCC(C(C)(C)O)CC1 (stereo not given) [terpineol],0.855
12,CC(C)CCC(=O)O [4-methylvaleric acid],0.965
13,"CC1CCC(C(C)C)C(O)C1 (single isomer, unassigned; (-)) [(-)-menthol]",0.392
14,CC(C)(C)c1ccc(CCC=O)cc1 [bourgeonal],0.907
15,CCCCCCCCOC(C)=O [octyl acetate],1.2
16,CC1=NC(C)SC1C (stereo not given),1.1
17,CC12C=CCC1C1CCC3CC(=O)CCC3(C)C1CC2 (stereo not given) [androstenone],1.14
18,C=C(C)C1CC=C(C)C(=O)C1 (stereo not given) [r-carvone],0.791
19,CC12C=CCC1C1CCC3=CC(=O)CCC3(C)C1CC2 (stereo not given) [androstadienone],0.882 and 0.918
20,CCCCCCCOC(C)=O [heptyl acetate],0.733 and 1.02
21,CC(C)C=O [isobutyraldehyde],1.07 and 0.692
22,CC=Cc1ccc(O)c(OC)c1 [isoeugenol],0.996 and 1.55
23,CCCC(=O)O [butyric acid],1.02
24,CCCCCC(C)=O [2-heptanone],1.73
25,CCCCCCC=O [heptaldehyde],0.964 and 0.757 and 1.05
26,CCCCCCCC=CC=O [2-decenal],1.04

# Tested on: OR11L1 G108S/F117L/A142T/R171P clone 1031
# Assay: as above
# Details: 100 µM
row,SMILES,odorant receptor activation
1,CCCCCC(=O)O [caproic acid],0.979
2,C=C(C)C1CC=CCC1 (stereo not given) [r-limonene],1.02 and 1.83
3,"CC1CCC(C(C)C)C(O)C1 (single isomer, unassigned; (+)) [(+)-menthol]",4.3
4,O=C1CCCCC1 [Cyclohexanone],1.29
5,CC(=O)c1ccccc1 [acetophenone],1.13
6,COC(=O)c1ccccc1 [methyl benzoate],1.2
7,O=CCc1ccccc1 [phenyl acetaldehyde],1.08
8,C=CC(C)(O)CCC=C(C)C (stereo not given) [linalool],1.27
9,CCCCO [1-butanol],4.65
10,CC/C=C\CCO [cis-3-hexen-1-ol],0.929
11,CC1=CCC(C(C)(C)O)CC1 (stereo not given) [terpineol],0.795
12,CC(C)CCC(=O)O [4-methylvaleric acid],2.29
13,CC1COCc2cc3c(cc21)C(C)(C)C(C)C3(C)C (stereo not given) [galaxolide],2.12
14,"CC1CCC(C(C)C)C(O)C1 (single isomer, unassigned; (-)) [(-)-menthol]",3.4
15,CC(C)(C)c1ccc(CCC=O)cc1 [bourgeonal],0.943
16,CCCCCCCCOC(C)=O [octyl acetate],1.21
17,CC1=NC(C)SC1C (stereo not given),1.41
18,CC12C=CCC1C1CCC3CC(=O)CCC3(C)C1CC2 (stereo not given) [androstenone],2.27
19,C=C(C)C1CC=C(C)C(=O)C1 (stereo not given) [r-carvone],0.803
20,CC12C=CCC1C1CCC3=CC(=O)CCC3(C)C1CC2 (stereo not given) [androstadienone],0.54
21,CCCCCCCOC(C)=O [heptyl acetate],0.721
22,CC(C)C=O [isobutyraldehyde],0.485
23,CC=Cc1ccc(O)c(OC)c1 [isoeugenol],1.41
24,CCCC(=O)O [butyric acid],1.12
25,CCCCCC(C)=O [2-heptanone],0.657
26,CCCCCCC=O [heptaldehyde],1.69 and 0.75
27,CCCCCCCC=CC=O [2-decenal],8.39

# Tested on: OR12D2 V47F/L56P/S104F/F113L/L120R/V159I clone 1373
# Assay: as above
# Details: 100 µM
row,SMILES,odorant receptor activation
1,CCCCCC(=O)O [caproic acid],0.23
2,C=C(C)C1CC=CCC1 (stereo not given) [r-limonene],1.21 and 1.06
3,"CC1CCC(C(C)C)C(O)C1 (single isomer, unassigned; (+)) [(+)-menthol]",0.221
4,O=C1CCCCC1 [Cyclohexanone],1.08
5,CC(=O)c1ccccc1 [acetophenone],0.975
6,COC(=O)c1ccccc1 [methyl benzoate],0.894
7,O=CCc1ccccc1 [phenyl acetaldehyde],1.84
8,C=CC(C)(O)CCC=C(C)C (stereo not given) [linalool],0.829
9,CCCCO [1-butanol],0.192
10,CC/C=C\CCO [cis-3-hexen-1-ol],0.226
11,CC1=CCC(C(C)(C)O)CC1 (stereo not given) [terpineol],0.917
12,CC(C)CCC(=O)O [4-methylvaleric acid],0.208
13,CC1COCc2cc3c(cc21)C(C)(C)C(C)C3(C)C (stereo not given) [galaxolide],3.57
14,"CC1CCC(C(C)C)C(O)C1 (single isomer, unassigned; (-)) [(-)-menthol]",0.146
15,CC(C)(C)c1ccc(CCC=O)cc1 [bourgeonal],0.164
16,CCCCCCCCOC(C)=O [octyl acetate],0.969
17,CC1=NC(C)SC1C (stereo not given),0.95
18,CC12C=CCC1C1CCC3CC(=O)CCC3(C)C1CC2 (stereo not given) [androstenone],0.209
19,C=C(C)C1CC=C(C)C(=O)C1 (stereo not given) [r-carvone],0.97
20,CC12C=CCC1C1CCC3=CC(=O)CCC3(C)C1CC2 (stereo not given) [androstadienone],0.898
21,CCCCCCCOC(C)=O [heptyl acetate],0.944
22,CC(C)C=O [isobutyraldehyde],0.952
23,CC=Cc1ccc(O)c(OC)c1 [isoeugenol],1.48
24,CCCC(=O)O [butyric acid],0.22
25,CCCCCC(C)=O [2-heptanone],1.06
26,CCCCCCC=O [heptaldehyde],1.11 and 0.9
27,CCCCCCCC=CC=O [2-decenal],0.413
